Data as given in PubChem BioAssay AID1117269 (University of Michigan, 2014).
In all, the deposit lists 714 reagents; below is an unselected part. 49 of all reagents (6.9%) count as active. 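Active means a hit in at least one line; per-line hit columns show which; some siRNA pools appear more than once.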 Not given: the amount of reagent.

- Purpose: 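Which kinase knockdowns increase BTR reporter light after TGF-beta stimulation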 (primary screen)
- Cell system: human A549 lung cancer and 1833 breast cancer (MDA-MB-231-derived) cell lines carrying a stable BTR luciferase reporter
- Knock-down reagent: siRNA pool against human genes
- Time to read-out: 72 h after transfection, then 1 h TGF-beta before the read
- Challenge: TGF-beta 10 ng/mL added one hour before luciferin and read-out
- Measured: 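BTR reporter bioluminescence as fold change relative to non-targeting siRNA, averaging triplicates per line; knockdown for 72 h, then TGF-beta at 10 ng/mL 1 h prior to reading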
- Scale: fold over scrambled siRNA, A549 and fold over scrambled siRNA, 1833: higher = more reporter light, weaker TGF-beta receptor signalling
- Rule for the call: 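Active if a hit in A549 or 1833; a line's hit exceeds an upper quartile-based cutoff on mean log fold values, applied per plate and across the whole screen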
- Meaning of the calls: active = hit in at least one line; inactive = hit in neither line

| target | PubChem SID | fold over scrambled siRNA, A549 | fold over scrambled siRNA, 1833 | hit in A549 | hit in 1833 | Call |
| --- | --- | --- | --- | --- | --- | --- |
| PRKD3 (protein kinase D3) | SID56478959 | 3.48 | 6.71 | not a hit in A549 | not a hit in 1833 | inactive |
| STK16 (serine/threonine kinase 16) | SID152154415 | 3.19 | 5.73 | not a hit in A549 | not a hit in 1833 | inactive |
| ADCK5 (aarF domain containing kinase 5) | SID56479281 | 2.88 | 2.79 | not a hit in A549 | not a hit in 1833 | inactive |
| MAPK7 (mitogen-activated protein kinase 7) | SID56478666 | 3.24 | 6.48 | not a hit in A549 | not a hit in 1833 | inactive |
| NME7 (NME/NM23 family member 7) | SID56479121 | 2.19 | 4.42 | not a hit in A549 | not a hit in 1833 | inactive |
| TRIM27 (tripartite motif containing 27) | SID152155375 | 3.57 | 5.94 | not a hit in A549 | not a hit in 1833 | inactive |
| TWF1 (twinfilin actin binding protein 1) | SID56478546 | 3.01 | 3.27 | not a hit in A549 | not a hit in 1833 | inactive |
| AK2 (adenylate kinase 2) | SID56479162 | 2.48 | 8.48 | not a hit in A549 | not a hit in 1833 | inactive |
| PDGFRB (platelet derived growth factor receptor beta) | SID152152554 | 1.09 | 0.589 | not a hit in A549 | not a hit in 1833 | inactive |
| TK2 (thymidine kinase 2) | SID152153963 | 1.81 | 3.52 | not a hit in A549 | not a hit in 1833 | inactive |
| PIP5K1A (phosphatidylinositol-4-phosphate 5-kinase type 1 alpha) | SID56478868 | 1.79 | 2.69 | not a hit in A549 | not a hit in 1833 | inactive |
| TNK1 (tyrosine kinase non receptor 1) | SID152152407 | 1.57 | 5.47 | not a hit in A549 | not a hit in 1833 | inactive |
| PRKAA1 (protein kinase AMP-activated catalytic subunit alpha 1) | SID152155693 | 6.83 | 2.93 | hit in A549 | not a hit in 1833 | active |
| EFNB3 (ephrin B3) | SID134315611 | 0.429 | 3.33 | not a hit in A549 | not a hit in 1833 | inactive |
| ITPKB (inositol-trisphosphate 3-kinase B) | SID56479111 | 3.05 | 12.3 | not a hit in A549 | hit in 1833 | – |
| SRPK2 (SRSF protein kinase 2) | SID56478890 | 1.14 | 5.1 | not a hit in A549 | not a hit in 1833 | inactive |
| PRKD1 (protein kinase D1) | SID152147507 | 1.62 | 1.76 | not a hit in A549 | not a hit in 1833 | inactive |
| ERBB3 (erb-b2 receptor tyrosine kinase 3) | SID135620617 | 3.38 | 13.3 | not a hit in A549 | hit in 1833 | – |
| RIOK1 (RIO kinase 1) | SID56479042 | 0.833 | 2.27 | not a hit in A549 | not a hit in 1833 | inactive |
| PTK2 (protein tyrosine kinase 2) | SID56478542 | 4.48 | 7.16 | not a hit in A549 | not a hit in 1833 | inactive |
| MLKL (mixed lineage kinase domain like pseudokinase) | SID152156672 | 4.1 | 6.51 | not a hit in A549 | not a hit in 1833 | inactive |
| PRKDC (protein kinase, DNA-activated, catalytic subunit) | SID56478960 | 3.67 | 3.76 | not a hit in A549 | not a hit in 1833 | inactive |
| TAOK2 (TAO kinase 2) | SID57288958 | 3.57 | 5.82 | not a hit in A549 | not a hit in 1833 | inactive |
| GALK2 (galactokinase 2) | SID56479099 | 1.05 | 2.71 | not a hit in A549 | not a hit in 1833 | inactive |
| RPS6KC1 (ribosomal protein S6 kinase C1) | SID135620976 | 3.14 | 4.63 | not a hit in A549 | not a hit in 1833 | inactive |
| CDK12 (cyclin dependent kinase 12) | SID152151382 | 1.17 | 8.11 | not a hit in A549 | not a hit in 1833 | inactive |
| IRAK3 (interleukin 1 receptor associated kinase 3) | SID56478864 | 0.905 | 1.46 | not a hit in A549 | not a hit in 1833 | inactive |
| PIK3R3 (phosphoinositide-3-kinase regulatory subunit 3) | SID56479284 | 1.58 | 3.4 | not a hit in A549 | not a hit in 1833 | inactive |
| GUCY2F (guanylate cyclase 2F, retinal) | SID152150427 | 2.05 | 2.14 | not a hit in A549 | not a hit in 1833 | inactive |
| CALM2 (calmodulin 2) | SID134320655 | 1.33 | 2.57 | not a hit in A549 | not a hit in 1833 | inactive |
| PAK4 (p21 (RAC1) activated kinase 4) | SID152147637 | 2.1 | 1.47 | not a hit in A549 | not a hit in 1833 | inactive |
| CAMK2G (calcium/calmodulin dependent protein kinase II gamma) | SID56478805 | 1.75 | 2.6 | not a hit in A549 | not a hit in 1833 | inactive |
| IP6K3 (inositol hexakisphosphate kinase 3) | SID135621241 | 1.14 | 3.67 | not a hit in A549 | not a hit in 1833 | inactive |
| PKN2 (protein kinase N2) | SID152156352 | 1.26 | 6.14 | not a hit in A549 | not a hit in 1833 | inactive |
| ALPK2 (alpha kinase 2) | SID152151764 | 1.95 | 2.67 | not a hit in A549 | not a hit in 1833 | inactive |
| BMPR1A (bone morphogenetic protein receptor type 1A) | SID135620910 | 3.85 | 4.07 | not a hit in A549 | not a hit in 1833 | inactive |
| LMTK2 (lemur tail kinase 2) | SID152147902 | 1.5 | 13.1 | not a hit in A549 | hit in 1833 | – |
| PRKCH (protein kinase C eta) | SID56478829 | 4.04 | 3.81 | not a hit in A549 | not a hit in 1833 | inactive |
| CDK8 (cyclin dependent kinase 8) | SID56478602 | 2.69 | 4.38 | not a hit in A549 | not a hit in 1833 | inactive |
| WEE1 (WEE1 G2 checkpoint kinase) | SID152152823 | 0.756 | 2.15 | not a hit in A549 | not a hit in 1833 | inactive |
| YES1 (YES proto-oncogene 1, Src family tyrosine kinase) | SID152156078 | 1.98 | 2.38 | not a hit in A549 | not a hit in 1833 | inactive |
| PGK2 (phosphoglycerate kinase 2) | SID135621248 | 0.979 | 1.73 | not a hit in A549 | not a hit in 1833 | inactive |
| RIPK3 (receptor interacting serine/threonine kinase 3) | SID152154350 | 1.52 | 2.06 | not a hit in A549 | not a hit in 1833 | inactive |
| ROCK1 (Rho associated coiled-coil containing protein kinase 1) | SID152156760 | 3.67 | 6.42 | not a hit in A549 | not a hit in 1833 | inactive |
| TAOK1 (TAO kinase 1) | SID152151735 | 1.41 | 1 | not a hit in A549 | not a hit in 1833 | inactive |
| NRBP2 (nuclear receptor binding protein 2) | SID56479019 | 6.03 | 3.31 | hit in A549 | not a hit in 1833 | active |
| ERN1 (endoplasmic reticulum to nucleus signaling 1) | SID135620914 | 0.631 | 0.683 | not a hit in A549 | not a hit in 1833 | inactive |
| CKMT2 (creatine kinase, mitochondrial 2) | SID152154085 | 1.46 | 4.8 | not a hit in A549 | not a hit in 1833 | inactive |
| CLK1 (CDC like kinase 1) | SID152154455 | 1.63 | 2.33 | not a hit in A549 | not a hit in 1833 | inactive |
| STK36 (serine/threonine kinase 36) | SID135620924 | 0.86 | 1.8 | not a hit in A549 | not a hit in 1833 | inactive |
| LCK (LCK proto-oncogene, Src family tyrosine kinase) | SID152150546 | 0.472 | 3.27 | not a hit in A549 | not a hit in 1833 | inactive |
| CHUK | SID152149746 | 3.36 | 3 | not a hit in A549 | not a hit in 1833 | inactive |
| BMX (BMX non-receptor tyrosine kinase) | SID152147462 | 4.21 | 2.15 | not a hit in A549 | not a hit in 1833 | inactive |
| COQ8B (coenzyme Q8B) | SID56478994 | 0.919 | 2.86 | not a hit in A549 | not a hit in 1833 | inactive |
| ROS1 (ROS proto-oncogene 1, receptor tyrosine kinase) | SID56478551 | 4.67 | 2.6 | not a hit in A549 | not a hit in 1833 | inactive |
| UCKL1 (uridine-cytidine kinase 1 like 1) | SID152149527 | 0.952 | 1.47 | not a hit in A549 | not a hit in 1833 | inactive |
| COASY (Coenzyme A synthase) | SID56479117 | 2.29 | 3.72 | not a hit in A549 | not a hit in 1833 | inactive |
| CPNE3 (copine 3) | SID134315878 | 1.82 | 1.93 | not a hit in A549 | not a hit in 1833 | inactive |
| MAP4K4 (mitogen-activated protein kinase kinase kinase kinase 4) | SID56478747 | 3.29 | 5.92 | not a hit in A549 | not a hit in 1833 | inactive |
| FGR (FGR proto-oncogene, Src family tyrosine kinase) | SID135620620 | 0.799 | 0.956 | not a hit in A549 | not a hit in 1833 | inactive |
| PLK3 (polo like kinase 3) | SID56478615 | 7.9 | 3.33 | hit in A549 | not a hit in 1833 | active |
| NRK (Nik related kinase) | SID152149639 | 1.61 | 0.741 | not a hit in A549 | not a hit in 1833 | inactive |
| PIK3CB | SID56478474 | 0.905 | 2 | not a hit in A549 | not a hit in 1833 | inactive |
| ULK1 (unc-51 like autophagy activating kinase 1) | SID56478976 | 3.14 | 5.9 | not a hit in A549 | not a hit in 1833 | inactive |
| SYK (spleen associated tyrosine kinase) | SID56478554 | 0.905 | 1.4 | not a hit in A549 | not a hit in 1833 | inactive |
| MAP3K19 (mitogen-activated protein kinase kinase kinase 19) | SID135620896 | 0.293 | 0.6 | not a hit in A549 | not a hit in 1833 | inactive |
| CAMKV (CaM kinase like vesicle associated) | SID135620973 | 0.989 | 2.33 | not a hit in A549 | not a hit in 1833 | inactive |
| TLK2 (tousled like kinase 2) | SID56479057 | 3.42 | 2.26 | not a hit in A549 | not a hit in 1833 | inactive |
| MYO3B (myosin IIIB) | SID152152883 | 2.86 | 3.7 | not a hit in A549 | not a hit in 1833 | inactive |
| UCK2 (uridine-cytidine kinase 2) | SID56478981 | 3.33 | 6.2 | not a hit in A549 | not a hit in 1833 | inactive |
| CALM1 (calmodulin 1) | SID152156420 | 4.64 | 5.33 | not a hit in A549 | not a hit in 1833 | inactive |
| TBK1 (TANK binding kinase 1) | SID56478726 | 0.594 | 1.37 | not a hit in A549 | not a hit in 1833 | inactive |
| DCK (deoxycytidine kinase) | SID56479088 | 1.26 | 7.94 | not a hit in A549 | not a hit in 1833 | inactive |

No new results follow: 12 of the entries above.
| target | PubChem SID | fold over scrambled siRNA, A549 | fold over scrambled siRNA, 1833 | hit in A549 | hit in 1833 | Call |
| --- | --- | --- | --- | --- | --- | --- |
| NRBP2 (nuclear receptor binding protein 2) | SID56479019 | 6.03 | 3.31 | hit in A549 | not a hit in 1833 | active |
| ERN1 (endoplasmic reticulum to nucleus signaling 1) | SID135620914 | 0.631 | 0.683 | not a hit in A549 | not a hit in 1833 | inactive |
| CKMT2 (creatine kinase, mitochondrial 2) | SID152154085 | 1.46 | 4.8 | not a hit in A549 | not a hit in 1833 | inactive |
| CLK1 (CDC like kinase 1) | SID152154455 | 1.63 | 2.33 | not a hit in A549 | not a hit in 1833 | inactive |
| STK36 (serine/threonine kinase 36) | SID135620924 | 0.86 | 1.8 | not a hit in A549 | not a hit in 1833 | inactive |
| LCK (LCK proto-oncogene, Src family tyrosine kinase) | SID152150546 | 0.472 | 3.27 | not a hit in A549 | not a hit in 1833 | inactive |
| CHUK | SID152149746 | 3.36 | 3 | not a hit in A549 | not a hit in 1833 | inactive |
| BMX (BMX non-receptor tyrosine kinase) | SID152147462 | 4.21 | 2.15 | not a hit in A549 | not a hit in 1833 | inactive |
| COQ8B (coenzyme Q8B) | SID56478994 | 0.919 | 2.86 | not a hit in A549 | not a hit in 1833 | inactive |
| ROS1 (ROS proto-oncogene 1, receptor tyrosine kinase) | SID56478551 | 4.67 | 2.6 | not a hit in A549 | not a hit in 1833 | inactive |
| UCKL1 (uridine-cytidine kinase 1 like 1) | SID152149527 | 0.952 | 1.47 | not a hit in A549 | not a hit in 1833 | inactive |
| COASY (Coenzyme A synthase) | SID56479117 | 2.29 | 3.72 | not a hit in A549 | not a hit in 1833 | inactive |
